Measured values as given in PubChem BioAssay AID2551 (National Center for Advancing Translational Sciences (NCATS), 2010).
Screen size: about 310,000 compounds; about 17,000 (5.5%) were called active. This list was built around the results that the source calls inconclusive (neither active nor inactive); the mix of calls is not that of the screen. Calls follow the shape of the dose curve; as a rule, active = well fitted inhibition curve with a large enough effect; inconclusive = small, poorly fitted or top-dose-only effect, or effect the other way; inactive = no such curve, though single readings can be large or run the other way. Potencies beside an inconclusive call are fits to weak or partial responses and may not hold up.
Also: nearly all actives have a fitted effect of over 60% in size.
Potency is read from the fitted curve at half-maximal effect.

By UniProt entry, the sequences of proteins in these tests, tags left out. Where a name states a change or a piece, a line headed by the entry shows the natural chain unless it says otherwise.
UniProt P51450: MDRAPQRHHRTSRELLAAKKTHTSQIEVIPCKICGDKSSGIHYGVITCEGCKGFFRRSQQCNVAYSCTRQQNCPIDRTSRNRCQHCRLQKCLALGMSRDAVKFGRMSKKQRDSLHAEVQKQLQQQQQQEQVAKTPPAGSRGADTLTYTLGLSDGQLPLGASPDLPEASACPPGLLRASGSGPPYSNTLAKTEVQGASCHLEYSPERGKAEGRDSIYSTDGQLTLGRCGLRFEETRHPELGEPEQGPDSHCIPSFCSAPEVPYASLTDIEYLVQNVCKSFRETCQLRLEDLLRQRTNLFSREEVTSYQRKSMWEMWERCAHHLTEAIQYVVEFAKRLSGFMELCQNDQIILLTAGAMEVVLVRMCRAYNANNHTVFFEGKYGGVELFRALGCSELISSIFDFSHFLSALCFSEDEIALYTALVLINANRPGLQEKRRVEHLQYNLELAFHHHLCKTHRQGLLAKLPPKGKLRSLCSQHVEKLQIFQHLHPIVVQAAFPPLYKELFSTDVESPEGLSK

The compounds below were run against Nuclear receptor ROR-gamma (Mus musculus) (UniProt P51450) (assay: qHTS for inhibitors of ROR gamma transcriptional activity). Conditions: Drosophila S2 Gal4-RORgamma UAS-luciferase reporter, 20 h; series mostly up to 53.6 µM.
In short: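 ROR gamma transcriptional activity was tracked as Gal4-UAS luciferase output in stably transfected Drosophila Schneider cells, with compound added 1 hr before 700 uM copper sulfate induction and a 20 hr ambient-temperature incubation.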
With N#C/C(=C/c1ccc(F)cc1)C(N)=S the Potency was inconclusive: 35.5 µM [inhibitor, single point]. For O=c1[nH]c(C2CCN(S(=O)(=O)Cc3ccccc3)CC2)nc2c1nnn2Cc1ccccc1, the Potency was inconclusive: 3.98 µM [activator, partial curve, poor fit]. With CCCCNS(=O)(=O)c1ccc2nc(-c3cccnc3)cc(C(=O)NCCCOCC)c2c1 the Potency was “inactive”. In the case of Cc1ccc(-c2nc(CNC(=O)c3ccco3)cs2)cc1, the Potency is reported as inconclusive: 14.1 µM [activator, single point]. In the case of Cc1cc(-c2nnc(SCCC(=O)Nc3ccccc3)o2)no1, the Potency is reported as active: 14.1 µM. Cc1noc(C)c1-c1ccc2ncnc(Nc3ccccc3)c2c1 was tested, and the Potency was inconclusive: 35.5 µM [inhibitor, single point]. In the case of CCN1/C(=C/C(C)=O)Sc2ccc(OC)cc21, the Potency is reported as “inactive”. O=C(CCCCC(=O)NCCCc1ccccc1)NCCCc1ccccc1 was tested, and the Potency was “inactive”. COc1cccc(CN(C)C(=O)CC23CC4CC(CC(C4)C2)C3)c1OC was tested, and the Potency was inconclusive: 31.6 µM [activator, single point]. Cc1ccccc1C(=O)c1c[nH]c(C(=O)N=CN(C)C)c1 was tested, and the Potency was “inactive”. With COC(=O)c1ccc(C(=O)OCc2nc3cc4ccccc4cc3[nH]2)cc1 the Potency was “inactive”. In the case of CN(CCNC(=O)CN1C(=O)CSc2ccc(S(=O)(=O)N3CCCC3)cc21)Cc1ccccc1, the Potency is reported as inconclusive: 35.5 µM [inhibitor, single point]. In the case of CCOC(=O)C1CCCN(C(=O)CNS(=O)(=O)c2ccc(Br)s2)C1 (stereo not drawn), the Potency is reported as “inactive”. With O=C(O)CCc1ncc(C(F)(F)F)cc1Cl the Potency was “inactive”. In the case of O=C1C(=O)N(c2cccc(Cl)c2)C(c2ccccc2[N+](=O)[O-])/C1=C(\O)c1ccccc1 (stereo not drawn), the Potency is reported as inconclusive: 35.5 µM [inhibitor, single point]. COc1ccc(CC(=O)Nc2nc(-c3ccc(F)c(F)c3)cs2)cc1 was tested, and the Potency was inconclusive: 17.8 µM [activator, partial curve]. In the case of Clc1cc(NCc2cccs2)ccc1N1CCOCC1, the Potency is reported as inconclusive: 35.5 µM [activator, single point]. Cc1cccc(NC2=C(NC(=O)c3ccccc3)C(=O)c3ccccc3C2=O)c1 was tested, and the Potency was inconclusive: 12.6 µM [inhibitor, single point]. For O=C(c1ccc(Cl)c(S(=O)(=O)N2CCOCC2)c1)N1CCN(Cc2ccccc2)CC1, the Potency was inconclusive: 3.98 µM [activator, single point]. In the case of CN(C)S(=O)(=O)c1cccc(C(=O)Nc2cc(Cl)cc(Cl)c2)c1, the Potency is reported as “inactive”. For O=C(CCn1c(=O)c2ccccc2n(Cc2ccccc2)c1=O)NC1CCN(Cc2ccccc2)CC1, the Potency was active: 0.112 µM. In the case of CCN(CCCNC(=O)c1[nH]c(C)c(C(C)=O)c1C)c1cccc(C)c1, the Potency is reported as inconclusive: 11.2 µM [activator, partial curve]. For CC(=O)Nc1cccc(/C(C)=N/NC(N)=S)c1, the Potency was inconclusive: 10 µM [inhibitor, partial curve]. In the case of Nc1ccccc1-c1n[nH]c(=S)s1, the Potency is reported as inconclusive: 22.4 µM [inhibitor, single point]. Cc1ccc(CNC(=O)c2cccc(OCc3c(C)noc3C)c2)cc1 was tested, and the Potency was inconclusive: 25.1 µM [activator, single point]. In the case of Cc1cnnc2ccc3c(no[n+]3[O-])c12, the Potency is reported as “inactive”. For Cc1cccc(N2CCN(C(=O)c3ccc(CNc4c(N5CCC(C)CC5)c(=O)c4=O)cc3)CC2C)c1 (stereo not drawn), the Potency was “inactive”. In the case of COc1ccccc1C(=O)/C=C/c1ccc(N2CCCCC2)c([N+](=O)[O-])c1, the Potency is reported as active: 5.62 µM. For CCOC(=O)c1oc2ccc(S(=O)(=O)n3nc(-c4ccccc4)cc3N)cc2c1C, the Potency was “inactive”. For O=C(CN1CCN(c2ccccc2)CC1)Nc1ccc(OCc2ccccc2)cc1, the Potency was inconclusive: 12.6 µM [activator, single point]. With CC(C)CCNC(=O)c1ccc2c(c1)N(C)C(=O)c1ccccc1S2 the Potency was “inactive”. In the case of CCc1c(O)cc2n(c1=O)-c1ccccc1C2(C)C, the Potency is reported as inconclusive: 20 µM [activator, single point]. With COc1ccc(CCNC(=O)/C=C/c2ccco2)cc1 the Potency was inconclusive: 35.5 µM [activator, single point]. With Nc1ccc(CN2CCOCC2)cc1 the Potency was “inactive”. CCCCOC(=O)Nc1ccc(N2CCOCC2)cc1 was tested, and the Potency was inconclusive: 0.178 µM [inhibitor, full curve, poor fit]. With CC(C)(C)C(=O)Nc1nnc(SCc2cccc(F)c2)s1 the Potency was inconclusive: 35.5 µM [inhibitor, single point]. With Cc1cc(N2CCN(c3ccccc3)CC2)n2ncnc2n1 the Potency was inconclusive: 11.2 µM [activator, single point]. With O=C(Nc1ccc2c(c1)OCO2)c1cc(-c2cccc(O)c2)on1 the Potency was active: 7.08 µM. CCOc1ccc(NS(=O)(=O)c2cc(OCC(N)=O)c(C)cc2Cl)cc1 was tested, and the Potency was inconclusive: 2.51 µM [activator, partial curve]. In the case of O=C(OCC(=O)c1c[nH]c2ccccc12)C1=COCCO1, the Potency is reported as inconclusive: 12.6 µM [activator, single point]. In the case of C[C@H](NC(=O)c1[nH]cnc1C(=O)Nc1ccc(Cl)cc1)C(=O)OC(C)(C)C, the Potency is reported as active: 1 µM. With CCOc1ccc(C(=O)NCC2CCCO2)cc1OCC (stereo not drawn) the Potency was “inactive”. CCCCC(=O)NC(=S)Nc1cc([N+](=O)[O-])ccc1OC was tested, and the Potency was active: 10 µM. For COc1ccc(/C=C/C(=O)c2cc(F)ccc2OC(=O)c2ccc(OC)c(OC)c2)cc1OC, the Potency was active: 8.91 µM. For CCOC(=O)c1c(N)nn(C(=O)CC)c1-c1ccccc1, the Potency was “inactive”. With Brc1ccc(-n2cc(-c3ccccc3)c3c(NN4CCOCC4)ncnc32)cc1 the Potency was active: 6.31 µM. With N#CC1(C#N)C(c2ccccc2)OC23CCCCCC2C1(C#N)C(=N)O3 (stereo not drawn) the Potency was inconclusive: 25.1 µM [activator, single point]. In the case of CCCc1ccc(-c2ccc(/C=C/C(=O)O)cc2)nc1, the Potency is reported as active: 0.158 µM. In the case of N/C(=N\N=C\c1ccc2c(c1)OCO2)SC1CC(=O)N(c2ccc(C(=O)O)cc2)C1=O (stereo not drawn), the Potency is reported as “inactive”. In the case of CCc1cccc2c(C(=O)C(NCCOC)c3ccccc3)c[nH]c12 (stereo not drawn), the Potency is reported as “inactive”. With COc1ccc(CN(C)C(=O)CC(c2ccccc2)c2ccccc2)cc1 the Potency was inconclusive: 11.2 µM [activator, single point]. For CCOc1cc2[nH]c(=S)n(Cc3ccc(C(=O)NCCN(CC)CC)cc3)c(=O)c2cc1OCC, the Potency was “inactive”. With Fc1ccc2[nH]c3c(NCCN4CCOCC4)ncnc3c2c1 the Potency was inconclusive: 3.98 µM [activator, single point]. CCCCCC(=O)N/N=C(\C)c1ccc(Cl)cc1 was tested, and the Potency was inconclusive: 11.2 µM [inhibitor, single point]. For NC(=O)Nc1ccccc1C(=O)NCCc1ccccc1, the Potency was “inactive”. COc1ccc(C(=O)CSc2n[nH]c(C)n2)cc1[N+](=O)[O-] was tested, and the Potency was inconclusive: 35.5 µM [inhibitor, single point]. O=C(N/N=C/c1ccc(Br)s1)c1ccco1 was tested, and the Potency was active: 6.31 µM. O=C(N/N=C\c1ccc(CNS(=O)(=O)c2ccccc2)o1)C(=O)Nc1ccc(F)cc1 was tested, and the Potency was inconclusive: 14.1 µM [activator, partial curve]. In the case of CCCCc1cc(=O)oc2cc(C)cc(OC(C)C(=O)NCc3cccnc3)c12 (stereo not drawn), the Potency is reported as “inactive”. CCCOc1ccc(CN(CCC#N)C(=S)NC(=O)c2ccccc2)cc1 was tested, and the Potency was active: 0.316 µM. With Cc1ccc(Nc2nc(-c3c(C)nc4ccccn34)cs2)cc1 the Potency was active: 10 µM. N=c1oc2ccc(Cl)cc2cc1C(=O)NC1CCCCCC1 was tested, and the Potency was inconclusive: 3.98 µM [inhibitor, single point]. Cc1ccc(Nc2nc(N)nc(CSc3nnnn3-c3ccccc3)n2)cc1 was tested, and the Potency was inconclusive: 35.5 µM [inhibitor, single point]. For Clc1ccc2ncnc(NCc3ccc4c(c3)OCO4)c2c1, the Potency was inconclusive: 2.82 µM [activator, partial curve]. For CC(C)(C)Nc1c(-c2cccs2)nc2ccccn12, the Potency was active: 6.31 µM. Cc1ccc(CSCc2ccc(C(=O)NC3CCCC3)o2)cc1 was tested, and the Potency was inconclusive: 35.5 µM [activator, single point]. For O=[N+]([O-])c1c(Nc2ccccc2O)cc(Cl)c2nonc12, the Potency was active: 3.55 µM. For Cc1ccccc1C1CC(c2ccccc2OC(F)F)Nc2ncnn21 (stereo not drawn), the Potency was inconclusive: 20 µM [inhibitor, partial curve, poor fit]. For Cc1ccc(C(=O)CSc2nnc(-c3ccco3)o2)o1, the Potency was inconclusive: 0.0708 µM [activator, full curve, poor fit]. For CCC(C)c1ccc(S(=O)(=O)N2CCN(c3ccccn3)CC2)cc1 (stereo not drawn), the Potency was “inactive”. With CCCCNC(=O)c1nc2ncc(Br)cn2n1 the Potency was inconclusive: 20 µM [activator, single point]. For CCCOc1ccc(C(C)=O)cc1CSc1nc(O)cc(=O)[nH]1, the Potency was inconclusive: 14.1 µM [activator, single point]. In the case of Cc1cc(Cl)ccc1NNC(N)=S, the Potency is reported as inconclusive: 35.5 µM [inhibitor, single point]. CCOC(=O)c1ccc(NC(=O)CSc2nnc(C3CC3)n2C)cc1 was tested, and the Potency was inconclusive: 31.6 µM [activator, single point]. For CC(=O)/C(=N/Nc1ccccc1)Sc1nnc(CCc2ccccc2)n1-c1ccccc1, the Potency was “inactive”. In the case of CC(=O)Oc1ccccc1C1C[C@]2(C)CC(=O)NC2N1C(C)=O (stereo partly drawn), the Potency is reported as “inactive”. In the case of CCC(=O)Nc1ccccc1N1CCN(c2ccc(F)cc2)CC1, the Potency is reported as “inactive”. For CCn1c2ccccc2c2cc(C3N=C(N)Nc4nc5ccccc5n43)ccc21 (stereo not drawn), the Potency was “inactive”.
